# Results reported in the supplement of paper PMC10849652.
# Chains of the proteins cited; added tags and fusions are not shown. Lines headed by an entry give the natural chain unless they say otherwise; changes in a name come on top.
# UniProt P56385: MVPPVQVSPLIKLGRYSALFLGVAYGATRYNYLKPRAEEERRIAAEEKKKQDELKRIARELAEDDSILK
# UniProt Q9Y4P1: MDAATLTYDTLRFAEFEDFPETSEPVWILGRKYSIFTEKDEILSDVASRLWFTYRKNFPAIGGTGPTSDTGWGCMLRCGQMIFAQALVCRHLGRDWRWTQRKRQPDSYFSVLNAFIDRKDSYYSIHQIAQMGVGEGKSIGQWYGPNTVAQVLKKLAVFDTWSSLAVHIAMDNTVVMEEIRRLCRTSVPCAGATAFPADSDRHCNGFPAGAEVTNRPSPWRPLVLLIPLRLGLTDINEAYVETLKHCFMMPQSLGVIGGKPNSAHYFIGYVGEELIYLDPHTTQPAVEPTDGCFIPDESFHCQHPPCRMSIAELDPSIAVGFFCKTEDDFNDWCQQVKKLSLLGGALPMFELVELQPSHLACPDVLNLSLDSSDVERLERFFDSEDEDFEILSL
# UniProt Q15904, whole entry, looked up: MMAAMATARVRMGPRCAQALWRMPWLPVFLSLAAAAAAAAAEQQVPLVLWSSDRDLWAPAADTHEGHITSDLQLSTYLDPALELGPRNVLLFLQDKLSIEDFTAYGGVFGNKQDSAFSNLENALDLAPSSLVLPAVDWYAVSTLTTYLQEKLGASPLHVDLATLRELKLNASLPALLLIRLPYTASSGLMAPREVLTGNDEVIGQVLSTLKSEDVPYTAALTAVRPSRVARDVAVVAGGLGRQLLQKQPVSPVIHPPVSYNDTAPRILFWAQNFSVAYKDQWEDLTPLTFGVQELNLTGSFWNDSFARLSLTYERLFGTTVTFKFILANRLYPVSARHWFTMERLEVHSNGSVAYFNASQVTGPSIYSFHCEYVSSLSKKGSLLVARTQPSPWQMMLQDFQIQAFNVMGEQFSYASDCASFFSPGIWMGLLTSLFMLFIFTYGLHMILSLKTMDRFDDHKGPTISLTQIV
# UniProt Q8NBU5: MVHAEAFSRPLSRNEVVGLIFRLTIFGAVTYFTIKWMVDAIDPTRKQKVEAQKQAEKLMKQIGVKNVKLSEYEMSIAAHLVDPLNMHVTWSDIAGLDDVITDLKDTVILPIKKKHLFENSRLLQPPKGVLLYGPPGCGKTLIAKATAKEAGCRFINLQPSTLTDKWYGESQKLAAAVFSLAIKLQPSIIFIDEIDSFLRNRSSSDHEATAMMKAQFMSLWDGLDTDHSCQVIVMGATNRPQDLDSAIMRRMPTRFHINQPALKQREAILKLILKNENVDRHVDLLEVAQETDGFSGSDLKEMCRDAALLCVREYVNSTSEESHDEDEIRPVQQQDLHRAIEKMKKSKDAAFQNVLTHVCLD
# UniProt Q9UI12, whole entry, looked up: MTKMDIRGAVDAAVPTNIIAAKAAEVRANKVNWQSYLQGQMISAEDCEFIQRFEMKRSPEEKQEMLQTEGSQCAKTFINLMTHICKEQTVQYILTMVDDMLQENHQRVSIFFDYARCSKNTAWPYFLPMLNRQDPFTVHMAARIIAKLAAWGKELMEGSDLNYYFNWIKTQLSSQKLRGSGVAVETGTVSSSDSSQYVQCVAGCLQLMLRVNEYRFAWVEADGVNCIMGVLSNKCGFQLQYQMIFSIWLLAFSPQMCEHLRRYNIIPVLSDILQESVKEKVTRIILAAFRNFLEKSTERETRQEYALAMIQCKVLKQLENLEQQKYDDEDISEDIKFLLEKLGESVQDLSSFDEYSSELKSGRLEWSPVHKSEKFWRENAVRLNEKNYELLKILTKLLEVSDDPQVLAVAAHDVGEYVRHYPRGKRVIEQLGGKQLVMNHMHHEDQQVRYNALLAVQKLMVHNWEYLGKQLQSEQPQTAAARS
# UniProt Q7Z3C6: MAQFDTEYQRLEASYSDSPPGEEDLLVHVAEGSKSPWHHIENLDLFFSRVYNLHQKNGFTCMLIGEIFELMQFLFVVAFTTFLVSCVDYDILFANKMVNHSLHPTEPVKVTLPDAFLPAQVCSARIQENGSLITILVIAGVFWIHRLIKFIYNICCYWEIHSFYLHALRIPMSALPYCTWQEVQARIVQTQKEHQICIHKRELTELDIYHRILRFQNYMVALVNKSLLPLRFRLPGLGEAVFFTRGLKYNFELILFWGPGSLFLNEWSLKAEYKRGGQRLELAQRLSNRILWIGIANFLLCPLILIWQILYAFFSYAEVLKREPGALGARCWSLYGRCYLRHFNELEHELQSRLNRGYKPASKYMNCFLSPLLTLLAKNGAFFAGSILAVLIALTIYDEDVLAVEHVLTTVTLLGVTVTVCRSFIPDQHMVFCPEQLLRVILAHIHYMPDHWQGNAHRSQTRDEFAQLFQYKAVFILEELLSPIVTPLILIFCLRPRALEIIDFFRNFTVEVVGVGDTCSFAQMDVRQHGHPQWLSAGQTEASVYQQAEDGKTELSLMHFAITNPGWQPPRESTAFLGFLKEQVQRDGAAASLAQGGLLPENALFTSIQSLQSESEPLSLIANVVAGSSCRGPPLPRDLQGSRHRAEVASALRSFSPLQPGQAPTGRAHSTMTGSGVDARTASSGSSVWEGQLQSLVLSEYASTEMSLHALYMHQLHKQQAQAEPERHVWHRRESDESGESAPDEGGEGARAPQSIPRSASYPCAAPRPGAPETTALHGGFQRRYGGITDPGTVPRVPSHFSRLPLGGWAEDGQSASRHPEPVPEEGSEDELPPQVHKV
# UniProt P40616: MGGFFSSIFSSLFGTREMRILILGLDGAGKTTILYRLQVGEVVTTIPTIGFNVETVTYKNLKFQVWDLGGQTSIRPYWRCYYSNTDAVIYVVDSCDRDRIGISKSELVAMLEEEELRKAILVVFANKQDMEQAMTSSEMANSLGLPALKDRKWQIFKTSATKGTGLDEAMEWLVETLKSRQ
# UniProt O75947: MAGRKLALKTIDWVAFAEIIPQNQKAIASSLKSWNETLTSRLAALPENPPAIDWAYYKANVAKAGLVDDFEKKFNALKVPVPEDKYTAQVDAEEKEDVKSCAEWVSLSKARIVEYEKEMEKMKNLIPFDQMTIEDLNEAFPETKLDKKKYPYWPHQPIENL
# This is one part of the list.
# How the values were obtained:
# Experiment in all cases: log2 fold change, soluble protein after heating vs DMSO (PISA); higher = thermal stabilisation; K562 cells, 10 uM, 30 min; active = over 0.2 and 3.5 SD of the protein, either way, in both replicates (recomputed)
# [1] = compound: COC1=CC=C(C=C1)CN2C=CC3=C2C=C(C=C3)C(=O)NO
# Outline: (§1)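 Quantification of soluble protein used TMTpro 16plex LC-MS/MS, with channel sums equalised. Samples were the supernatant after 21,000xg for 90 min of pooled aliquots from K562 cells (2×10^6 cells/mL) treated with 10 μM compound for 30 min, heated for 3 min over 48°C-58°C, and extracted in PBS with 0.5% NP-40 at 4°C. Values, from duplicates, describe thermal stability against control samples on a log2 fold-change scale.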
# filanesib = compound: CON(C)C(=O)N1N=C(c2cc(F)ccc2F)S[C@@]1(CCCN)c1ccccc1 [filanesib]
# Outline: as §1
# zotarolimus = compound: CO[C@H]1C[C@@H]2CC[C@@H](C)[C@@](O)(O2)C(=O)C(=O)N2CCCC[C@H]2C(=O)O[C@H]([C@H](C)C[C@@H]2CC[C@H](n3cnnn3)[C@H](OC)C2)CC(=O)[C@H](C)/C=C(\C)[C@@H](O)[C@@H](OC)C(=O)[C@H](C)C[C@H](C)/C=C/C=C/C=C/1C [zotarolimus]
# Outline: as §1
# idasanutlin = compound: COc1cc(C(=O)O)ccc1NC(=O)[C@@H]1N[C@@H](CC(C)(C)C)[C@](C#N)(c2ccc(Cl)cc2F)[C@H]1c1cccc(Cl)c1F [idasanutlin]
# Outline: as §1
# alisertib = compound: COc1cc(Nc2ncc3c(n2)-c2ccc(Cl)cc2C(c2c(F)cccc2OC)=NC3)ccc1C(=O)O [alisertib]
# Outline: as §1
# [2] = compound: COc1cc2nc(-c3cc(F)ccc3O)nc(N[C@@H]3CNC[C@H]3C(C)(C)O)c2cc1OC
# Outline: as §1
# gefitinib = compound: COc1cc2ncnc(Nc3ccc(F)c(Cl)c3)c2cc1OCCCN1CCOCC1 [gefitinib]
# Outline: as §1
# [3] = compound: COc1cccc2cc(-c3nc([C@H]4CC[C@H](C(=O)O)CC4)n4ncnc(N)c34)[nH]c12
# Outline: as §1
# lapatinib = compound: CS(=O)(=O)CCNCc1ccc(-c2ccc3ncnc(Nc4ccc(OCc5cccc(F)c5)c(Cl)c4)c3c2)o1 [lapatinib]
# Outline: as §1
# pictilisib = compound: CS(=O)(=O)N1CCN(Cc2cc3nc(-c4cccc5[nH]ncc45)nc(N4CCOCC4)c3s2)CC1 [pictilisib]
# Outline: as §1
# [4] = compound: CS(=O)(=O)c1ccc(-c2cnc(N)c(C(=O)Nc3ccccc3)n2)cc1
# Outline: as §1
# crizotinib = compound: C[C@@H](Oc1cc(-c2cnn(C3CCNCC3)c2)cnc1N)c1c(Cl)ccc(F)c1Cl [crizotinib]
# Outline: as §1
# [5] = compound: C[C@@H]1COCCN1C2=NC(=NC(=C2)C3(CC3)S(=O)(=O)C)C4=C5C=CNC5=CC=C4
# Outline: as §1
# [6] = compound: C[C@H](C1=CC=C(C=C1)C(=O)NC2=C3C=CNC3=NC=C2)N
# Outline: as §1
# gandotinib = compound: Cc1cc(Nc2cc(CN3CCOCC3)c3nc(C)c(Cc4ccc(Cl)cc4F)n3n2)n[nH]1 [gandotinib]
# Outline: as §1
# [7] = compound: Cc1cc(SCc2sc(-c3ccc(C(F)(F)F)cc3)nc2C)ccc1OCC(=O)O
# Outline: as §1
# doramapimod = compound: Cc1ccc(-n2nc(C(C)(C)C)cc2NC(=O)Nc2ccc(OCCN3CCOCC3)c3ccccc23)cc1 [doramapimod]
# Outline: as §1
# ispinesib = compound: Cc1ccc(C(=O)N(CCCN)[C@@H](c2nc3cc(Cl)ccc3c(=O)n2Cc2ccccc2)C(C)C)cc1 [ispinesib]
# Outline: as §1
# duvelisib = compound: C[C@H](Nc1ncnc2nc[nH]c12)c1cc2cccc(Cl)c2c(=O)n1-c1ccccc1 [duvelisib]
# Outline: as §1
# tozasertib = compound: Cc1cc(Nc2cc(N3CCN(C)CC3)nc(Sc3ccc(NC(=O)C4CC4)cc3)n2)n[nH]1 [tozasertib]
# Outline: as §1
Target,log2 fold change [1],log2 fold change (filanesib),log2 fold change (zotarolimus),log2 fold change (idasanutlin),log2 fold change (alisertib),log2 fold change [2],log2 fold change (gefitinib),log2 fold change [3],log2 fold change (lapatinib),log2 fold change (pictilisib),log2 fold change [4],log2 fold change (crizotinib),log2 fold change [5],log2 fold change [6],log2 fold change (gandotinib),log2 fold change [7],log2 fold change (doramapimod),log2 fold change (ispinesib),log2 fold change (duvelisib),log2 fold change (tozasertib)
ATP5ME (UniProt P56385),inactive: -0.023,inactive: -0.053,inactive: 0.002,inactive: -0.024,inactive: -0.027,inactive: -0.04,inactive: 0.021,inactive: 0.063,inactive: -0.001,inactive: 0.019,inactive: -0.016,inactive: 0.101,inactive: 0.102,inactive: -0.046,inactive: 0.001,inactive: -0.016,inactive: 0.033,inactive: 0.078,,
ATG4B isoform 2 (UniProt Q9Y4P1),inactive: -0.003,inactive: -0.142,inactive: 0.048,inactive: -0.045,inactive: -0.009,inactive: -0.058,inactive: 0.005,inactive: -0.082,inactive: -0.157,inactive: -0.311,inactive: 0.078,inactive: -0.361,inactive: 0.056,inactive: -0.004,inactive: -0.12,inactive: 0.184,inactive: 0.003,inactive: -0.277,,
ATP6AP1 (UniProt Q15904),inactive: -0.099,inactive: -0.064,inactive: 0.025,inactive: 0.009,inactive: 0.166,inactive: -0.068,inactive: -0.009,inactive: -0.057,inactive: 0.019,inactive: -0.017,inactive: -0.006,inactive: -0.134,inactive: -0.161,inactive: 0.146,inactive: -0.03,inactive: 0.055,inactive: 0.045,active: -0.317,,
ATAD1 (UniProt Q8NBU5),inactive: 0.009,inactive: -0.045,inactive: 0.087,inactive: -0.046,inactive: -0.037,inactive: -0.014,inactive: 0.003,inactive: -0.029,inactive: 0.007,inactive: 0.012,inactive: 0.004,inactive: 0.021,inactive: -0.013,inactive: 0.074,inactive: 0.144,inactive: 0.113,inactive: -0.003,inactive: -0.063,,
ATP1A1 (UniProt P05023),inactive: 0.09,inactive: 0.013,inactive: 0.002,inactive: 0.004,inactive: -0.092,inactive: 0.032,inactive: 0.03,inactive: 0.054,inactive: -0.019,inactive: -0.023,inactive: 0.032,inactive: 0.165,inactive: 0.028,inactive: -0.117,inactive: -0.049,inactive: -0.035,inactive: -0.047,inactive: 0.106,,
ATP6V1H (UniProt Q9UI12),inactive: 0.035,inactive: -0.106,inactive: 0.055,inactive: -0.067,inactive: -0.1,inactive: -0.064,inactive: -0.121,inactive: -0.073,inactive: -0.009,inactive: -0.063,inactive: -0.045,inactive: -0.199,inactive: 0.019,inactive: 0.003,inactive: 0.021,inactive: 0.014,inactive: 0.038,inactive: -0.089,,
ATG9A (UniProt Q7Z3C6),inactive: 0.008,inactive: -0.113,inactive: -0.014,inactive: -0.003,inactive: 0.064,inactive: -0.073,inactive: 0.011,inactive: -0.015,inactive: -0.045,inactive: 0.075,inactive: 0.074,inactive: -0.11,inactive: 0.036,inactive: 0.036,inactive: -0.062,inactive: 0.069,inactive: -0.016,active: -0.239,,
ARL1 (UniProt P40616),inactive: -0.007,inactive: -0.155,inactive: 0.03,active: -0.254,inactive: -0.124,inactive: -0.042,inactive: 0.047,inactive: 0.042,inactive: 0.117,inactive: -0.135,inactive: 0.01,inactive: -0.073,inactive: 0.094,inactive: -0.092,inactive: -0.111,inactive: 0.031,inactive: 0.018,inactive: -0.064,,
ATP5PD (UniProt O75947),inactive: 0.002,inactive: -0.031,inactive: 0.009,inactive: -0.021,inactive: -0.014,inactive: 0.007,inactive: -0.003,inactive: 0.005,inactive: -0.047,inactive: -0.014,inactive: 0.013,inactive: 0.071,inactive: 0.094,inactive: -0.097,inactive: -0.013,inactive: 0.008,inactive: -0.025,inactive: 0.077,inactive: -0.013,inactive: 0.019
